Laboratory results from paper PMC4633636.
Results are given in words; binding and its absence hold for the method and conditions named. For part of these data: In cells and extracts the contact can be indirect. Some entries that bind do so weakly or less than the wild type. Blank lines part the entries; values can stand above or below the substance they belong to.

By UniProt entry, the sequences of proteins in these tests, tags left out. Where a name states a change or a piece, a line headed by the entry shows the natural chain unless it says otherwise.
UniProt O95365: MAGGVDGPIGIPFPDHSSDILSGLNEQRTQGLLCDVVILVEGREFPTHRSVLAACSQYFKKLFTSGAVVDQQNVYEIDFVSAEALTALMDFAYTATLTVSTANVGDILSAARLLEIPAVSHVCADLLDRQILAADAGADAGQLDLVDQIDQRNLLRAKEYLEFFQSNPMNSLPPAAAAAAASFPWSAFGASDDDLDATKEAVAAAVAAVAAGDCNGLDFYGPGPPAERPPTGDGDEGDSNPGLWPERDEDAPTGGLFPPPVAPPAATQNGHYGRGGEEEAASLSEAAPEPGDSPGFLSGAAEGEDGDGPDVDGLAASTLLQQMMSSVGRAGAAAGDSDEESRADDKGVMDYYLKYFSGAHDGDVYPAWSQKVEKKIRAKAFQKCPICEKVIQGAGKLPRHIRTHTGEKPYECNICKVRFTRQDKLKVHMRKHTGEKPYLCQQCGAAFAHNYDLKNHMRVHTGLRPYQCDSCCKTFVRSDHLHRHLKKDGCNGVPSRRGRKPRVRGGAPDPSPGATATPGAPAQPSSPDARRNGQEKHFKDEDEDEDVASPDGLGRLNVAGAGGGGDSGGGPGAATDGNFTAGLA
UniProt P23475: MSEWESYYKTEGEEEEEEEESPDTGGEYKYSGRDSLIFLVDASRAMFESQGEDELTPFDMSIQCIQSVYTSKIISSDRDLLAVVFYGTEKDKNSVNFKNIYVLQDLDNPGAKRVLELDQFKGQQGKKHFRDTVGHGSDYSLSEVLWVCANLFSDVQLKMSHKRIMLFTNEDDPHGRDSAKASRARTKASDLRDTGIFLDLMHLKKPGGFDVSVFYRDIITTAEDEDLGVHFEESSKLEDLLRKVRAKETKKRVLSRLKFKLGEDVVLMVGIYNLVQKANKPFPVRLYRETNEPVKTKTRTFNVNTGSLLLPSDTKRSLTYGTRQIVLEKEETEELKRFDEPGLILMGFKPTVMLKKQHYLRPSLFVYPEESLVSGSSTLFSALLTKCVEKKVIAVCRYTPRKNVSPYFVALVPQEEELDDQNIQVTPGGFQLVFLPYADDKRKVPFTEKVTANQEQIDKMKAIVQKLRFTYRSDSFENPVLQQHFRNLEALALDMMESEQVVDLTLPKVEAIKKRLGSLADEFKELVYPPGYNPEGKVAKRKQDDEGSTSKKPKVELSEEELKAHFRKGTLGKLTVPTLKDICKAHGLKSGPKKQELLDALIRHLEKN
UniProt P27641: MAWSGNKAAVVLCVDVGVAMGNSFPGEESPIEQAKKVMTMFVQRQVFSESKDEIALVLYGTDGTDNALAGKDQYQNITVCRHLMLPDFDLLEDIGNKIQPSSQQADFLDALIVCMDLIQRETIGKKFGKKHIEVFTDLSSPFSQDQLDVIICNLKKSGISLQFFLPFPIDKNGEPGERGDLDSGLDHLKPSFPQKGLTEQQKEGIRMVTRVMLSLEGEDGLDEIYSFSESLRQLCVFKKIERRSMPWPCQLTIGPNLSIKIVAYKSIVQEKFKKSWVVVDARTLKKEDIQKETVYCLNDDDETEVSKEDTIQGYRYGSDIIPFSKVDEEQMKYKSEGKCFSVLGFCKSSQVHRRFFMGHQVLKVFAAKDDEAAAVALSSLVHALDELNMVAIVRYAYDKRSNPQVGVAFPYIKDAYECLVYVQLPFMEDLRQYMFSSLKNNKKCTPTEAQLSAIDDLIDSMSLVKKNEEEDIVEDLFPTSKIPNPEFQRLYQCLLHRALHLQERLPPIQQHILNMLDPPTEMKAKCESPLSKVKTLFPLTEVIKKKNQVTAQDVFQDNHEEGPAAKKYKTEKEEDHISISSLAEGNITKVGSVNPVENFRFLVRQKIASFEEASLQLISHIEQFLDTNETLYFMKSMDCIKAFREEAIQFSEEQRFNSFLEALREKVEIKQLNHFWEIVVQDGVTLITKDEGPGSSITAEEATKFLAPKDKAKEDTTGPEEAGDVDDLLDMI
UniProt P78527: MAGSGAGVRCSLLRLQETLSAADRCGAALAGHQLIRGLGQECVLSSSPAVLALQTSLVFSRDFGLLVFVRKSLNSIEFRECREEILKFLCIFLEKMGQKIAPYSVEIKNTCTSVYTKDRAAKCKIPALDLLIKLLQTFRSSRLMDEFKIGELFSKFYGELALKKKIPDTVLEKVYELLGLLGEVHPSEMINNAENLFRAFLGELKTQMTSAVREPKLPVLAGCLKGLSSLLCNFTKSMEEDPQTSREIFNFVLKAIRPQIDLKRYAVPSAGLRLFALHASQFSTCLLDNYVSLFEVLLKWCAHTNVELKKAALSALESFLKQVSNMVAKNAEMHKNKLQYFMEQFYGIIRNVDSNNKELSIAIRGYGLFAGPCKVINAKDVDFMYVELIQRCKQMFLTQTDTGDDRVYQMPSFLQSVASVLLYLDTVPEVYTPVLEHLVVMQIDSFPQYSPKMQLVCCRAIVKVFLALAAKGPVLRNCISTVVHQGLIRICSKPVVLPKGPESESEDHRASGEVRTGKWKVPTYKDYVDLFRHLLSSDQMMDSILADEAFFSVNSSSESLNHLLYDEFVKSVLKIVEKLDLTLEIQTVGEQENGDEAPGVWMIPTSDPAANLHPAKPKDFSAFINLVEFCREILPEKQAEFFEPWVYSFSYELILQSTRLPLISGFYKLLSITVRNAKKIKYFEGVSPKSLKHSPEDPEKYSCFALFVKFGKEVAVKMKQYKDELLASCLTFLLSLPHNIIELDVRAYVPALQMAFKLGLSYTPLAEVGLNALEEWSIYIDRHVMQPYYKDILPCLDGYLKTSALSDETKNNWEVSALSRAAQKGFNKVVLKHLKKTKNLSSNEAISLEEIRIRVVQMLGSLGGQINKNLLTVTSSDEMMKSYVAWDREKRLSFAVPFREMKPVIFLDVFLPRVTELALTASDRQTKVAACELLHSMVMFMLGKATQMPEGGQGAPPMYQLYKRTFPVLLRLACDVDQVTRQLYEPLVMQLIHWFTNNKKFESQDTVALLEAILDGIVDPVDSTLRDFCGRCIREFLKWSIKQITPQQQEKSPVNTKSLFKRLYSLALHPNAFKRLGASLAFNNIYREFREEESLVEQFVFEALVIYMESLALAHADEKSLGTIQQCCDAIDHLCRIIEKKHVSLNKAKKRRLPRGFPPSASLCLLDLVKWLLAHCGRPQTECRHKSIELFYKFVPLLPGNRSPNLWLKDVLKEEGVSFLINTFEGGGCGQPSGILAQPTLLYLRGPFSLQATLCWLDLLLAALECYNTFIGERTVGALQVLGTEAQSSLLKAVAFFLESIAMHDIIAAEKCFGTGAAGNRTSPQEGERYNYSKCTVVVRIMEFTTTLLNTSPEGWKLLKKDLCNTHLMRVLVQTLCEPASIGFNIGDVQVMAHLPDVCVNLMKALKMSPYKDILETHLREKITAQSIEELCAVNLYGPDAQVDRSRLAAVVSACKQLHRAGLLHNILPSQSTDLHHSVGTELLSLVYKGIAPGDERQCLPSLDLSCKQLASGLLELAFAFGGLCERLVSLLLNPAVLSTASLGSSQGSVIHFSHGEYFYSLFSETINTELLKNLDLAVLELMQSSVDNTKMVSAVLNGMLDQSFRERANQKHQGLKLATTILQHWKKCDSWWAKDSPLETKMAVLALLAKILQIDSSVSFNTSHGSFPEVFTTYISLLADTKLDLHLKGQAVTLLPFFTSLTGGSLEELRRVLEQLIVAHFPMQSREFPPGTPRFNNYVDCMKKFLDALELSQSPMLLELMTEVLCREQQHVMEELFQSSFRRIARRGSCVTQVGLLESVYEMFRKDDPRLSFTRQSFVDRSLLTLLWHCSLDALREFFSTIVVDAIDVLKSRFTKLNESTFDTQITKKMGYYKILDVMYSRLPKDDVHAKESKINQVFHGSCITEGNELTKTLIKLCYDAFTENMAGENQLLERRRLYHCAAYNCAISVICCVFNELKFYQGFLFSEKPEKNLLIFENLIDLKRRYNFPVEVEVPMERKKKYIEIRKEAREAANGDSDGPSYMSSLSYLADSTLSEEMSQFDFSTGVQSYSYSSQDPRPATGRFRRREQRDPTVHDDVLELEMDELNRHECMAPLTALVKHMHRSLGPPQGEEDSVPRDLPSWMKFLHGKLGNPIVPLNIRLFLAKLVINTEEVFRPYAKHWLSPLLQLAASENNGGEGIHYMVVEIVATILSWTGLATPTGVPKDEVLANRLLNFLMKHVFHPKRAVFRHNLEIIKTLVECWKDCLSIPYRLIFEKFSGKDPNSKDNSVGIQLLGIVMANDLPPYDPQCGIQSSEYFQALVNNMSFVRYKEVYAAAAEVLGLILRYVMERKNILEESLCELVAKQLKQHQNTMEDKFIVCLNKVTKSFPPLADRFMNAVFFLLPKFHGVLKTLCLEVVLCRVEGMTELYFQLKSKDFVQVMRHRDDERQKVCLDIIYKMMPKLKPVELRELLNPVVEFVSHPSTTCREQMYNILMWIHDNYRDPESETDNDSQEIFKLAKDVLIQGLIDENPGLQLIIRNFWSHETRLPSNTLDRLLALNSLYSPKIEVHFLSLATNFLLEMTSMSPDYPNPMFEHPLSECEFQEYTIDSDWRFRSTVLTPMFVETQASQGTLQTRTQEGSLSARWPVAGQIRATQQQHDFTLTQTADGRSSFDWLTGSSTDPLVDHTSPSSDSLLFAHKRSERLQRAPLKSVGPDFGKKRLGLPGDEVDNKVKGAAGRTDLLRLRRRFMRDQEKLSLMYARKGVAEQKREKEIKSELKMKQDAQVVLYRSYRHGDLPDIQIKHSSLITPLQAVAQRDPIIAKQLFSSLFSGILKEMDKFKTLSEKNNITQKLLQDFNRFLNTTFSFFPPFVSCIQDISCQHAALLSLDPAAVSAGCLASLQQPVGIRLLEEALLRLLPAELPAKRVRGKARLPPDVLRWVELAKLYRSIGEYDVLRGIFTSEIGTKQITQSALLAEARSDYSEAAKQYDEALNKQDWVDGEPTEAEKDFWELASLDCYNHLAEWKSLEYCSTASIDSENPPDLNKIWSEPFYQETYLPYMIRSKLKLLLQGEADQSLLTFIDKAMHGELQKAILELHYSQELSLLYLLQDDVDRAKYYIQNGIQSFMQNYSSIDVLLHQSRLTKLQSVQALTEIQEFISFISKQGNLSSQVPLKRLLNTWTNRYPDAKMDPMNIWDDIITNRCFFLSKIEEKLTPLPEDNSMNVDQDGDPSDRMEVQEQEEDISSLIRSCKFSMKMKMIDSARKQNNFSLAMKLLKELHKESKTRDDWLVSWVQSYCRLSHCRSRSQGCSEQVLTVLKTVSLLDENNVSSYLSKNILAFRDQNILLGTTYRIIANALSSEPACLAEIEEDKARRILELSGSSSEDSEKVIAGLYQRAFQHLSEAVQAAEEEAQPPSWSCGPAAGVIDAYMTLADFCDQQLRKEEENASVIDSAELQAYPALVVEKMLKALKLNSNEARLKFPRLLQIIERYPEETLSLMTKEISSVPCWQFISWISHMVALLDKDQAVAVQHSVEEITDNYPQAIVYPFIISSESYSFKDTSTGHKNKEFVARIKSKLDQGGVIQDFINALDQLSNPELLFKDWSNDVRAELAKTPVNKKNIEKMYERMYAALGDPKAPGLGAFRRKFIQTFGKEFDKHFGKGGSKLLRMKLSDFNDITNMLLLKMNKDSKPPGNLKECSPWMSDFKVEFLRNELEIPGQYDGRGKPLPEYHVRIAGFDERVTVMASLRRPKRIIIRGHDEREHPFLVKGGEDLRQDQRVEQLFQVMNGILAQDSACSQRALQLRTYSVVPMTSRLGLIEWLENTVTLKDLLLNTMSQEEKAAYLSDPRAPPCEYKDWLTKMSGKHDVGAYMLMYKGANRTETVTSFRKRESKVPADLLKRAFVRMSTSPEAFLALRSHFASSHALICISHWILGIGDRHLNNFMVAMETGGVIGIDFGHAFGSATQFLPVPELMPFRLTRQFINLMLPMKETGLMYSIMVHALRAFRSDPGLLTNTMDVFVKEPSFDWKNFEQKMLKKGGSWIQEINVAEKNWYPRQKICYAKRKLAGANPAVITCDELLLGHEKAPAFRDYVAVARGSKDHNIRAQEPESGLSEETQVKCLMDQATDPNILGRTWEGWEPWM

What was measured:
[1] = target: human LRF tagged with Flag and haemagglutinin (HA) epitopes (human) (UniProt O95365)
[2] = target: Ku70/Ku80 heterodimer, endogenous in mouse embryonic fibroblasts (mouse (endogenous in MEF)) (UniProt P23475+P27641); test: co-IP; Ku70 co-immunoprecipitation from control (p53-/- Lrf f/f ctr) and LRF conditional knockout (p53-/- Lrf f/f cre) MEF; less DNA-PKcs found in LRF-depleted cells
[3] = target: endogenous LRF (UniProt O95365); test: co-IP; endogenous co-immunoprecipitation in the presence of ethidium bromide (50 μg ml^-1), which disrupts DNA-dependent interactions
[4] = target: endogenous LRF (UniProt O95365); test: co-IP; endogenous, reciprocal; 1 mg cell lysate (50 mM Tris pH 8.0, 150 mM NaCl, 0.5% NP-40), antibody 3-4 h at 4 °C, protein A beads; washed with 20 mM Tris pH 8.0, 100 mM NaCl, 1 mM EDTA, 0.5% NP-40; no ethidium bromide
[5] = target: FLAG-tagged LRF (UniProt O95365); test: pull-down; in vitro binding: FLAG-tagged LRF held on Flag antibody affinity resin, washed with 500 mM NaCl; purified DNA-PK components added in the absence of EtBr; western blotting; both purified
[6] = target: FLAG-tagged LRF (UniProt O95365); test: pull-down; in vitro binding: FLAG-tagged LRF held on Flag antibody affinity resin, washed with 500 mM NaCl; purified DNA-PK components added in the presence of EtBr; western blotting; both purified

Substance: DNA-PKcs (catalytic subunit of DNA-dependent protein kinase), endogenous in HeLa (from UniProt P78527 1-4128)
binding [1]: binds

binding [2]: binds
Substance: DNA-PKcs, endogenous in mouse embryonic fibroblasts (from UniProt P97313 1-4128)

binding [3]: binds | binding [4]: binds
Substance: endogenous DNA-PKcs (from UniProt P78527 1-4128)

binding [5]: binds | binding [6]: binds
Substance: purified DNA-PKcs (component of the purified DNA-PK complex, Promega) (from UniProt P78527 1-4128)
